Laboratory results as given in publication PMC3717291.
Results are given in words; binding and its absence hold for the method and conditions named. In cells and extracts the contact can be indirect. Some results given as binding are weak or reduced against the parent protein; the word gives no strength.

Protein sequences, listed by entry. Tags and fused reporters are not part of them.
UniProt P05549: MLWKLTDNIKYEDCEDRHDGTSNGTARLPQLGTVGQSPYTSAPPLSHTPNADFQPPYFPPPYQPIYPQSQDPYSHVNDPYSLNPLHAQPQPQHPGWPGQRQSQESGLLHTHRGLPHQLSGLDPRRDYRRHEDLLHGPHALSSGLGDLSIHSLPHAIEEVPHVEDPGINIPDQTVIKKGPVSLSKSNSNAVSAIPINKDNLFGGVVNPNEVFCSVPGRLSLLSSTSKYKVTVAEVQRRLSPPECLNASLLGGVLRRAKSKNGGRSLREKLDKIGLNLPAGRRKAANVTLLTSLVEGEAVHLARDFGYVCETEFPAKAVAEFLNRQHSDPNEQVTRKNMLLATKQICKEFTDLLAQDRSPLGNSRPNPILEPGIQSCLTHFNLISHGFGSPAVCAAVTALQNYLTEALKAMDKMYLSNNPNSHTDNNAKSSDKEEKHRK

Molecular target: activator protein 2α (human (endogenous in hESC)) (UniProt P05549)
Assay: co-IP; 600 μg of hESC proteins immunoprecipitated with anti-rabbit IgG or anti-AP2α at 4°C for 12 h; washed precipitates detected by western blotting

binding: binds
B1: calcium-activated neutral protease 7 (enzyme, UniProt Q9Y6W3 1-813)
chain: MDATALERDAVQFARLAVQRDHEGRYSEAVFYYKEAAQALIYAEMAGSSLENIQEKITEYLERVQALHSAVQSKSADPLKSKHQLDLERAHFLVTQAFDEDEKENVEDAIELYTEAVDLCLKTSYETADKVLQNKLKQLARQALDRAEALSEPLTKPVGKISSTSVKPKPPPVRAHFPLGANPFLERPQSFISPQSCDAQGQRYTAEEIEVLRTTSKINGIEYVPFMNVDLRERFAYPMPFCDRWGKLPLSPKQKTTFSKWVRPEDLTNNPTMIYTVSSFSIKQTIVSDCSFVASLAISAAYERRFNKKLITGIIYPQNKDGEPEYNPCGKYMVKLHLNGVPRKVIIDDQLPVDHKGELLCSYSNNKSELWVSLIEKAYMKVMGGYDFPGSNSNIDLHALTGWIPERIAMHSDSQTFSKDNSFRMLYQRFHKGDVLITASTGMMTEAEGEKWGLVPTHAYAVLDIREFKGLRFIQLKNPWSHLRWKGRYSENDVKNWTPELQKYLNFDPRTAQKIDNGIFWISWDDLCQYYDVIYLSWNPGLFKESTCIHSTWDAKQGPVKDAYSLANNPQYKLEVQCPQGGAAVWVLLSRHITDKDDFANNREFITMVVYKTDGKKVYYPADPPPYIDGIRINSPHYLTKIKLTTPGTHTFTLVVSQYEKQNTIHYTVRVYSACSFTFSKIPSPYTLSKRINGKWSGQSAGGCGNFQETHKNNPIYQFHIEKTGPLLIELRGPRQYSVGFEVVTVSTLGDPGPHGFLRKSSGDYRCGFCYLELENIPSGIFNIIPSTFLPKQEGPFFLDFNSIIPIKITQLQ
